From the supplement of paper PMC7661543
Differences between knockout arms are mostly noise.

Assays:
Test in all cases: relative cell number vs DMSO control (72 h) (% of DMSO); higher = less growth inhibition (more cells)
BT-20 = system: BT-20
Description: (§1)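 QMAP-Seq: a pool of 5 breast cancer cell lines (ZR-75-1, SKBR3, HCC-38, MDA-MB-231, BT-20), each carrying 12 doxycycline-inducible Cas9 sgRNA perturbations (11 knockouts plus non-targeting sgNT), was treated with compounds for 72 h at four 10-fold doses (10 nM-10 uM or 1 nM-1 uM range). Barcodes were amplified and sequenced, and cell number was interpolated from 293T spike-in standard curves. The result is expressed as % of the median of DMSO wells. Two biological replicates.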

SKBR3 = system: SKBR3
Description: as §1

ZR-75-1 = system: ZR-75-1
Description: as §1

COC(=O)[C@]12CCC(C)(C)C[C@H]1[C@H]1C(=O)C=C3[C@@]4(C)C=C(C#N)C(=O)C(C)(C)[C@@H]4CC[C@@]3(C)[C@]1(C)CC2 [BardoxoloneMethyl]
relative cell number
Details | BT-20 | SKBR3 | ZR-75-1
sgRNA knockout: sgATF3, 10 nM | 87.6 | 81.4 | 105
sgRNA knockout: sgATF3, 100 nM | 81.88 | 64.7 | 53.5
sgRNA knockout: sgATF3, 1000 nM | 20.9 | 8.84 | 14.9
sgRNA knockout: sgATF3, 10000 nM | 3.2 | 5.51 | 3.07
sgRNA knockout: sgATF4, 10 nM | 102 | 89.4 | 70.6
sgRNA knockout: sgATF4, 100 nM | 83.8 | 70.8 | 58.3
sgRNA knockout: sgATF4, 1000 nM | 21.7 | 10.8 | 21.3
sgRNA knockout: sgATF4, 10000 nM | 4.62 | 4.49 | 4.15
sgRNA knockout: sgATF6, 10 nM | 85.6 | 75.5 | 101
sgRNA knockout: sgATF6, 100 nM | 95.5 | 60.3 | 46.1
sgRNA knockout: sgATF6, 1000 nM | 20.7 | 10.6 | 17.3
sgRNA knockout: sgATF6, 10000 nM | 3.17 | 5.87 | 3.98
sgRNA knockout: sgATG7, 10 nM | 107 | 98.4 | 81.37
sgRNA knockout: sgATG7, 100 nM | 73.8 | 63.3 | 37.1
sgRNA knockout: sgATG7, 1000 nM | 17.6 | 17.8 | 21
sgRNA knockout: sgATG7, 10000 nM | 3.99 | 5.53 | 2.82
sgRNA knockout: sgERN1, 10 nM | 87.8 | 92.8 | 102
sgRNA knockout: sgERN1, 100 nM | 88.3 | 56.8 | 56.7
sgRNA knockout: sgERN1, 1000 nM | 18.1 | 12.2 | 12.3
sgRNA knockout: sgERN1, 10000 nM | 2.86 | 6.771 | 7.77
sgRNA knockout: sgHSF1, 10 nM | 94.4 | 81.29 | –
sgRNA knockout: sgHSF1, 100 nM | 81.8 | 59 | –
sgRNA knockout: sgHSF1, 1000 nM | 20.4 | 13.9 | –
sgRNA knockout: sgHSF1, 10000 nM | 4.22 | 7.43 | –
sgRNA knockout: sgHSF2, 10 nM | 91.6 | 94.8 | 100
sgRNA knockout: sgHSF2, 100 nM | 77.7 | 55.5 | 52.5
sgRNA knockout: sgHSF2, 1000 nM | 19.6 | 12.9 | 15
sgRNA knockout: sgHSF2, 10000 nM | 4.22 | 4.99 | 3.36
sgRNA knockout: sgKEAP1, 10 nM | 92 | 86.8 | –
sgRNA knockout: sgKEAP1, 100 nM | 82 | 78.4 | –
sgRNA knockout: sgKEAP1, 1000 nM | 24.4 | 11.7 | –
sgRNA knockout: sgKEAP1, 10000 nM | 4.33 | 4.35 | –
sgRNA knockout: sgNFE2L2, 10 nM | 92.8 | 81.5 | 78.1
sgRNA knockout: sgNFE2L2, 100 nM | 57.4 | 66.6 | 40.4
sgRNA knockout: sgNFE2L2, 1000 nM | 17.2 | 11.8 | 15.9
sgRNA knockout: sgNFE2L2, 10000 nM | 3.72 | 6.04 | 7.75
sgRNA knockout: sgSLC35F2, 10 nM | 97.1 | 105 | 84.4
sgRNA knockout: sgSLC35F2, 100 nM | 84.7 | 66.7 | 46.9
sgRNA knockout: sgSLC35F2, 1000 nM | 22.8 | 15.8 | 19
sgRNA knockout: sgSLC35F2, 10000 nM | 6.22 | 3.91 | 4.05
sgRNA knockout: sgXBP1, 10 nM | 80.2 | 98.2 | 82.5
sgRNA knockout: sgXBP1, 100 nM | 76 | 54.7 | 45.2
sgRNA knockout: sgXBP1, 1000 nM | 22.7 | 15.9 | 14.4
sgRNA knockout: sgXBP1, 10000 nM | 4.87 | 5.49 | 6.09

Cc1ccc2c(c1)C(=O)C1(O)CCN(c3ccccc3)C1=N2 (stereo not drawn) [Blebbistatin]
relative cell number
Details | BT-20 | SKBR3 | ZR-75-1
sgRNA knockout: sgATF3, 10 nM | 108 | 146 | 140
sgRNA knockout: sgATF3, 100 nM | 119 | 145 | 148
sgRNA knockout: sgATF3, 1000 nM | 122.2 | 141 | 139
sgRNA knockout: sgATF3, 10000 nM | 120 | 100 | 94.4
sgRNA knockout: sgATF4, 10 nM | 111 | 114.7 | 129
sgRNA knockout: sgATF4, 100 nM | 138.9 | 144 | 137
sgRNA knockout: sgATF4, 1000 nM | 117 | 107 | 170
sgRNA knockout: sgATF4, 10000 nM | 119 | 100.7 | 112
sgRNA knockout: sgATF6, 10 nM | 110 | 113 | 84.8
sgRNA knockout: sgATF6, 100 nM | 120 | 119 | 107
sgRNA knockout: sgATF6, 1000 nM | 120 | 133 | 103.9
sgRNA knockout: sgATF6, 10000 nM | 114 | 111 | 129
sgRNA knockout: sgATG7, 10 nM | 121 | 113 | 106
sgRNA knockout: sgATG7, 100 nM | 127 | 144 | 113
sgRNA knockout: sgATG7, 1000 nM | 126 | 154 | 134
sgRNA knockout: sgATG7, 10000 nM | 112 | 126 | 68
sgRNA knockout: sgERN1, 10 nM | 112 | 122 | 151
sgRNA knockout: sgERN1, 100 nM | 144 | 109 | 126
sgRNA knockout: sgERN1, 1000 nM | 115 | 139 | 113
sgRNA knockout: sgERN1, 10000 nM | 128 | 113 | 80.9
sgRNA knockout: sgHSF1, 10 nM | 97.6 | 142 | –
sgRNA knockout: sgHSF1, 100 nM | 132 | 113 | –
sgRNA knockout: sgHSF1, 1000 nM | 109 | 125 | –
sgRNA knockout: sgHSF1, 10000 nM | 121 | 84.3 | –
sgRNA knockout: sgHSF2, 10 nM | 111 | 109 | 130
sgRNA knockout: sgHSF2, 100 nM | 137 | 128 | 111
sgRNA knockout: sgHSF2, 1000 nM | 135 | 127 | 126
sgRNA knockout: sgHSF2, 10000 nM | 144 | 102 | 89.5
sgRNA knockout: sgKEAP1, 10 nM | 110.7 | 113 | –
sgRNA knockout: sgKEAP1, 100 nM | 127 | 114 | –
sgRNA knockout: sgKEAP1, 1000 nM | 123 | 113.83 | –
sgRNA knockout: sgKEAP1, 10000 nM | 124 | 108 | –
sgRNA knockout: sgNFE2L2, 10 nM | 132 | 126 | 112
sgRNA knockout: sgNFE2L2, 100 nM | 151 | 129 | 140
sgRNA knockout: sgNFE2L2, 1000 nM | 130 | 144 | 141
sgRNA knockout: sgNFE2L2, 10000 nM | 128 | 102 | 140
sgRNA knockout: sgSLC35F2, 10 nM | 106.1 | 100 | 96.9
sgRNA knockout: sgSLC35F2, 100 nM | 131 | 124 | 158
sgRNA knockout: sgSLC35F2, 1000 nM | 117 | 125 | 202
sgRNA knockout: sgSLC35F2, 10000 nM | 97.4 | 104 | 111
sgRNA knockout: sgXBP1, 10 nM | 119 | 131 | 108
sgRNA knockout: sgXBP1, 100 nM | 133 | 118 | 119
sgRNA knockout: sgXBP1, 1000 nM | 124 | 144 | 121
sgRNA knockout: sgXBP1, 10000 nM | 117 | 129 | 105
